According to the supplement of paper PMC9135407:
“And” between values parts separate entries of the source, which are not always exact repeats. Equal values may be shown once. ± gives the standard deviation of the averaged measurements. The list shows a part of the results. Plates or batches differ in their baseline, so values are only roughly comparable.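 Culture-activated primary human stellate myofibroblasts, where regained lipid droplets signal inactivation. Value: share of Hoechst-counted cells above a per-plate Bodipy cutoff, in duplicate wells, with DMSO negative and nortriptyline positive controls on each plate. Hits: a control-normalized score above the plate's top-tenth-percentile nortriptyline wells, or one of a plate's three best wells. Final well concentrations are not given.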

System: primary human hepatic stellate cells (donor 1)
Test: percent Bodipy-positive cells; higher = more lipid droplet accumulation
Conditions: 48 h
Procedure: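 Primary lipid accumulation screen in primary human hepatic stellate cell myofibroblasts (donor 1, passage 8) in 384-well plates. 100 nL of library compound was pin-transferred into 30 µL medium in duplicate, and cells were treated for 48 h. The 'Scaled' score combines distance from plate baseline, toxicity and reproducibility penalties, and is normalised to nortriptyline (positive) and DMSO (negative) controls on each plate. A hit is defined as scaled >0.85 or among the top 3 wells per plate.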

[1] = library stock concentration: 1 mM
[2] = library stock concentration: 3.33 mM
[3] = library stock concentration: 10 mM
[4] = library stock concentration: 80 uM
[5] = library stock concentration: 400 uM
[6] = library stock concentration: 2 mM

Cc1c(O)c(=O)n(-c2ccccc2)n1C [Antipyrine, 4-hydroxy]
percent Bodipy-positive cells: 26.8 ± 6.5%

CC(C)OC(=O)C(C)(C)Oc1ccc(C(=O)c2ccc(Cl)cc2)cc1 [Fenofibrate]
percent Bodipy-positive cells: 23.8 ± 4.7%
percent Bodipy-positive cells [1]: 10.1 ± 0.88%
percent Bodipy-positive cells [2]: 10.6 ± 3.5%

CC(C)OC(=O)C(C)(C)Oc1ccc(C(=O)c2ccc(Cl)cc2)cc1
percent Bodipy-positive cells [3]: 59.6 ± 7.3%

OCCOc1ccc(/C(=C(/CCCl)c2ccccc2)c2ccccc2)cc1 [Ospemifene]
percent Bodipy-positive cells [2]: 20.3 ± 0.64%
percent Bodipy-positive cells [3]: 51.8 ± 3%

CCCCCCCC/C=C\CCCCCCCC(=O)OCC [Oleic Acid ethyl ester]
percent Bodipy-positive cells [1]: 19.4 ± 5.6%

COc1cc2c(cc1OC)-c1[nH]nc(Nc3cccc(F)c3)c1C2 [PDGF Receptor Tyrosine Kinase Inhibitor IV]
percent Bodipy-positive cells [2]: 39.2 ± 3.8%

COc1cc2c(cc1OC)-c1[nH]nc(Nc3cccc(F)c3)c1C2
percent Bodipy-positive cells [4]: 14.6 ± 7.6%
percent Bodipy-positive cells [5]: 15.3 ± 6.2%
percent Bodipy-positive cells [1]: 20.4 ± 4.8%
percent Bodipy-positive cells [6]: 27 ± 7.7%
percent Bodipy-positive cells [3]: 60.4 ± 5.7%

Cn1cc(/C=C2\C(=O)Nc3cccnc32)c2ccccc21
percent Bodipy-positive cells [5]: 21.5 ± 16%
percent Bodipy-positive cells [6]: 12.8 ± 0.48%
percent Bodipy-positive cells [3]: 7.7% and 21.3%

Cc1ccc(NC(=O)C2(c3ccc4c(c3)OC(F)(F)O4)CC2)nc1-c1cccc(C(=O)O)c1 [VX-809 (Lumacaftor)]
percent Bodipy-positive cells [2]: 7.02 ± 1.5%
percent Bodipy-positive cells [3]: 17.3 ± 0.32%

CNCc1ccc(-c2[nH]c3cc(F)cc4c3c2CCNC4=O)cc1.O=P(O)(O)O
percent Bodipy-positive cells [3]: 94 ± 2.2%

CC(=NNC(=S)N1CCC1)c1ccccn1
percent Bodipy-positive cells [2]: 53.6 ± 5.4%
percent Bodipy-positive cells [3]: 68.9 ± 8.8%

CN(C)CCCN1c2ccccc2CCc2ccc(Cl)cc21.Cl [Clomipramine hydrochloride]
percent Bodipy-positive cells [3]: 77.8 ± 2.9%

Cc1cc2c(s1)Nc1ccccc1N=C2N1CCN(C)CC1
percent Bodipy-positive cells (library stock concentration: 9.9 mM): 38.1 ± 7.7%

Cc1cc2c(s1)Nc1ccccc1N=C2N1CCN(C)CC1 [Olanzapine]
percent Bodipy-positive cells [2]: 44.3 ± 6.5%
percent Bodipy-positive cells (library stock concentration: 6.4 mM): 27.4% and 14.9%
percent Bodipy-positive cells [3]: 37.8 ± 3.9%

Cc1cc(C(=O)O)sc1C(N)C(=O)O (stereo unspecified)
percent Bodipy-positive cells [3]: 9.54 ± 1.3%

CN1C(=O)C(Cc2c[nH]c3ccccc23)NC1=S (stereo unspecified) [Necrostatin-1]
percent Bodipy-positive cells [4]: 5.7 ± 0.61%
percent Bodipy-positive cells [5]: 7.74 ± 0.94%
percent Bodipy-positive cells [6]: 5.61 ± 1.8%
